From article PMC7819943, “Rice protein-binding microarrays: a tool to detect cis-acting elements near promoter regions in rice”
The list shows a part of the results.

Sequences of proteins named here, by UniProt entry; tags and fusion partners are left off.
UniProt Q0JBA9, entry or part of it: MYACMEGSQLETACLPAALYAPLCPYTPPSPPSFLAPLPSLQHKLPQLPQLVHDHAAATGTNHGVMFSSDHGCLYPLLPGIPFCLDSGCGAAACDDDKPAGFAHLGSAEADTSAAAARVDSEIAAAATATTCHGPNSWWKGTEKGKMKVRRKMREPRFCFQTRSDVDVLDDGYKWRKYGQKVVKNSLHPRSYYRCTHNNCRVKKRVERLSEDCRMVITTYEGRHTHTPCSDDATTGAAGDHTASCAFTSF

target: OsWRKY34 (Oryza sativa, UniProt Q0JBA9 1-250); assay: protein-binding microarray (RPBM); PBS, 2% BSA, 51.3 ng/ul salmon testes DNA, 50 uM zinc acetate, 200 nM TF, 25 C, 1 h; high values mean tight binding; conditions: protein: recombinant; tags: N-terminal polyhistidine and DsRed monomer fusion (pET32a); label: CyDye5-dUTP incorporated in the synthesized complementary strand; 3' TTTTT single-stranded linker to array surface; dsDNA, one strand shown
In short: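 For the binding signal, per-feature fluorescence intensity was read in arbitrary units on an Axon 4000B scanner. Before scanning, a 2% BSA-blocked custom Agilent array made double-stranded with Cy5-dUTP was washed after 1 h at 25 °C with 200 nM protein and 50 µM zinc acetate. The proteins were Ni–NTA-purified transcription factors with N-terminal polyhistidine and DsRed fusions, expressed in E. coli BL21-CodonPlus.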

Row | Sequence | binding signal
1 | TGTCCTTGAAACCGCTTTACTTCTTTATCTGACTTTTGAACGGAGTCACCTAGTGCAG | 8180 fluorescence intensity (a.u.)
2 | AATTAGTTTGATGTTATAAGCGTCATGTTTTTTCCATAAACGGAGTCACCTAGTGCAG | 9620 fluorescence intensity (a.u.)
3 | ATCGATCGCCCAACCGACCAACCAGCTAGTCCATGTTTCTCGGAGTCACCTAGTGCAG | 10700 fluorescence intensity (a.u.)
4 | ATCATCGTTGCCTGGTGCTGTATAGGTTTGGTGAGCCCATCGGAGTCACCTAGTGCAG | 8040 fluorescence intensity (a.u.)
5 | GGAATTTTGGCCCCTTAAATTGTTGTATAATTGAAGCTTTCGGAGTCACCTAGTGCAG | 8130 fluorescence intensity (a.u.)
6 | CACCTACCCCATTTTCTTCTACGCCTACCACACTACTACCCGGAGTCACCTAGTGCAG | 10100 fluorescence intensity (a.u.)
7 | ACGTGATTGATGGATGGAGCTAACCGCGCGTGCCCGACACCGGAGTCACCTAGTGCAG | 8340 fluorescence intensity (a.u.)
8 | TTCCTTGTCTCCTACTGCTTACTCCCTCCGTCTCAAAATACGGAGTCACCTAGTGCAG | 8510 fluorescence intensity (a.u.)
9 | ATCCACCTAACAAGTTTATGTACCACCAATGCAATTTACTCGGAGTCACCTAGTGCAG | 8780 fluorescence intensity (a.u.)
10 | CCTTTTCTTTCACCTTTCTCACCTGCCGGTCTCCCTCGAGCGGAGTCACCTAGTGCAG | 8220 fluorescence intensity (a.u.)
11 | CAGTAACCAACGCTCATTCCTATACTACTGTACCTGCCAACGGAGTCACCTAGTGCAG | 11100 fluorescence intensity (a.u.)
12 | CATGCTTCTATTTGATTGACCTTCATCCTCATGTTAACCTCGGAGTCACCTAGTGCAG | 11600 fluorescence intensity (a.u.)
13 | ATATGCCCACCCAAGGGTTTTTTCCCCTGGAACGCGCTGCCGGAGTCACCTAGTGCAG | 8130 fluorescence intensity (a.u.)
14 | TCCCTGAACGGGTTGCATGTGCATGTTTCTTCTCTTCTTCCGGAGTCACCTAGTGCAG | 10600 fluorescence intensity (a.u.)
15 | GAATCCTACTTCTCGCAGGGGCAATCTTGTACTCACAAAACGGAGTCACCTAGTGCAG | 9360 fluorescence intensity (a.u.)
16 | TTTTTATATTATTTATACTCCTTCCCTTTTACGTTTCATACGGAGTCACCTAGTGCAG | 9280 fluorescence intensity (a.u.)
17 | GCATAACTAATGGTCTGTTTACTTTGATGGCATTTTCAATCGGAGTCACCTAGTGCAG | 9570 fluorescence intensity (a.u.)
18 | CCTTGTTTGGCAAAGCTCATGTCCTGGCCCATATGATATACGGAGTCACCTAGTGCAG | 8340 fluorescence intensity (a.u.)
19 | TTCTTCTTGGTGGTGGTGGGGCCTGGAAACTATGTGACTTCGGAGTCACCTAGTGCAG | 18200 fluorescence intensity (a.u.)
20 | CAAGGTTTGTTTTCTTATCAGTTACTACTGCTTTTGTGGTCGGAGTCACCTAGTGCAG | 11100 fluorescence intensity (a.u.)
21 | TGTAAGAGGTGTGTAACTCGCCAGTTTTGCTTCAACCACACGGAGTCACCTAGTGCAG | 8890 fluorescence intensity (a.u.)

Row | Sequence | binding signal
22 | TCGTCAGTTTTTTTTCATCTCATTTTAGCACTACTTCGACCGGAGTCACCTAGTGCAG | 9590 fluorescence intensity (a.u.)
23 | GGTGTGCTGAACTTGTGGAGTAACTTTTTTCTGGATTCCTCGGAGTCACCTAGTGCAG | 8420 fluorescence intensity (a.u.)
24 | CCTGGGGAGGGTACTCCTCCGTATTTAGCCTCGGTTGTATCGGAGTCACCTAGTGCAG | 8790 fluorescence intensity (a.u.)
25 | GACCACACAGCACCAACCAACTAAACCACCACCACCACCACGGAGTCACCTAGTGCAG | 8500 fluorescence intensity (a.u.)
26 | CACCAACCTTGCTAGCACTATATATCTAGGCGTCAATTGACGGAGTCACCTAGTGCAG | 8090 fluorescence intensity (a.u.)
27 | ATTTCAGACTAGGTACTTTTGTTATTTTAATTTACTTTGGCGGAGTCACCTAGTGCAG | 8920 fluorescence intensity (a.u.)
28 | TGTGTTCCTTTAGTTCTCTTCACACGCATTACTTAGGCCACGGAGTCACCTAGTGCAG | 9080 fluorescence intensity (a.u.)
29 | TGGCAGGCAGGGGTGGCTTCGCGGTGGGCAGCAGCGGCTTCGGAGTCACCTAGTGCAG | 8650 fluorescence intensity (a.u.)
30 | GGATCACGCATTTGACTTTGCCTTTTTTTTCGACTTCTTGCGGAGTCACCTAGTGCAG | 12100 fluorescence intensity (a.u.)
31 | GTCAAACGTTGGACACGGATTTCTACGGCTGCACTTATTTCGGAGTCACCTAGTGCAG | 8192 fluorescence intensity (a.u.)
32 | AGCGAACGTGGTTATGTATTTTTGGCTTGGACTATTTTTTCGGAGTCACCTAGTGCAG | 9120 fluorescence intensity (a.u.)
33 | TAAGTATTTCCTTTCTTTGCATTTTACCGCCTTGCTATTTCGGAGTCACCTAGTGCAG | 8200 fluorescence intensity (a.u.)
34 | CTCTCACACACTTCACTCGGTCTTCCTCTTCTTCTTCTTTCGGAGTCACCTAGTGCAG | 12300 fluorescence intensity (a.u.)
35 | GATAGGGTTAGGGTTAGGGTTTTCCCTGGTCCGCATCTTCCGGAGTCACCTAGTGCAG | 9320 fluorescence intensity (a.u.)
36 | GTTCTCGATGTGTTCTAAAATTTTGTTGTTTATAATTTTTCGGAGTCACCTAGTGCAG | 8190 fluorescence intensity (a.u.)
37 | CGGTCGACCCACCGTCTGCCACGTCAGCTTGCCGCCCACCCGGAGTCACCTAGTGCAG | 10100 fluorescence intensity (a.u.)
38 | CATTAGAGTCTTGTTTTAGTTGCTGATCATATTCTCCTTTCGGAGTCACCTAGTGCAG | 13200 fluorescence intensity (a.u.)
39 | TGCTGGTGGTGGTGGTGGGGATCGAGCCGCTCGCTTCGACCGGAGTCACCTAGTGCAG | 11700 fluorescence intensity (a.u.)
40 | ATCTGAGCCACACATCCGCTGAAATAACCGTGCAGTTTCACGGAGTCACCTAGTGCAG | 10800 fluorescence intensity (a.u.)
41 | GTGGACGTTTTTGACTTTGTACTTTCAACGTTTGACCATTCGGAGTCACCTAGTGCAG | 13900 fluorescence intensity (a.u.)
42 | CTCGCCCATTCTACTTCCATTCTCTTCACACCATCACATGCGGAGTCACCTAGTGCAG | 10100 fluorescence intensity (a.u.)

Reprinted at random: two records from the list.
Row | Sequence | binding signal
26 | CACCAACCTTGCTAGCACTATATATCTAGGCGTCAATTGACGGAGTCACCTAGTGCAG | 8090 fluorescence intensity (a.u.)
17 | GCATAACTAATGGTCTGTTTACTTTGATGGCATTTTCAATCGGAGTCACCTAGTGCAG | 9570 fluorescence intensity (a.u.)
